Results published in publication doi:10.1101/2024.10.18.619078.

Assays:
[1] = biological target: HA-TurboID-LIFERING, wild-type (Arabidopsis thaliana); assay: proximity labelling
[2] = biological target: HA-TurboID-LIFERING C392R (Arabidopsis thaliana); assay: proximity labelling

binding [1]: binds | binding [2]: binds
B1: acyl-CoA dehydrogenase IBR3 (At3g06810), endogenous (protein, UniProt Q8RWZ3 1-824)
chain: MGSSTGDLVTRIQSAHRFDHDALFRFAADNVSGFPTNPSQFKVSQFGHGQSNPTFLIEVGSGSSLKRYVLRKKPPGKLLQSAHAVDREFQVLRALGEHTQVPVPKVFCLCTDPAVIGTAFYIMEFMEGRIFIDPKLPNVAPERRNAIYRATAKALASLHSADVDAIGLEKYGRRGNYCKRQIDRWFKQYLASTSEGKPERNPKMFELVDWLRKNIPAEDSTGATSGLVHGDFRIDNLVFHPSEDRVIGIIDWELSTLGNQMCDVAYSCMHYIVNVQLDKEHVSEGFETTGLPEGMLSMPEFLLEYCSASGKPWPAANWKFYVAFSLFRAASIYTGVYSRWLMGNASAGERARNTGVQANELVESALGYIARENVLPEHPPSVQRDVSPSYESLVDGSGRFIPNRKVLELRQKLIKFMETHIYPMENEFSKLAQSDMRWTVHPQEEKLKEMAKREGLWNLFVPVDSAARARRELAATENKHNLSGKSFDQLFGEGLTNLEYGYLCEIMGRSVWAPQVFNCGAPDTGNMEVILRYGNKEQISEWLIPLLEGRIRSGFAMTEPQVASSDATNIECSIRRQGDSYVINGTKWWTSGAMDPRCRVLILMGKTDFNAPKHKQQSMILVDMRTPGISVKRPLTVFGFDDAPHGHAEISFENVVVPAKNILLGEGRGFEIAQGRLGPGRLHHCMRLIGAAERGMELMAQRALSRKTFGKFIAQHGSFVSDLAKLRVELEGTRLLVLEAADHLDKFGNKKARGILAMAKVAAPNMALKVLDTAIQVHGAAGVSSDTVLAHLWATARTLRIADGPDEVHLGTIGKLELQRASKL
modifications: biotinylated by TurboID in the cells (sites not given)

No constants are given. Whether binding was seen depends on the method and setting. Binding seen in cells or lysates may run through a third protein. Here binding means that the protein was enriched with, or labelled near, the bait; the list need not be complete.
